Source: PubChem BioAssay AID493014 (National Center for Advancing Translational Sciences (NCATS), 2011)
The whole screen tested about 340,000 compounds, of which about 170 (0.05%) were called active. Inconclusive results, whose numbers are uncertain, are shown with a selection of clear calls. Calls come from the whole dose curve; as a rule, active = well fitted inhibition curve with a large enough effect in the signal ratio, with a control signal flat (not every such curve was filed as active); inconclusive = small, poorly fitted or top-dose-only effect, or effect the other way, or a change in a side signal; inactive = flat fitted curve, though single readings scatter; the % refers to the signal ratio. Where the call is inconclusive, the potency comes from a doubtful curve fit.

Test: qHTS Assay to Find Inhibitors of Chronic Active B-Cell Receptor Signaling;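 for activity change, negative = inhibition: plate controls were basal doxycycline-induced cells for no effect and cells given 10 µM MG132 for full effect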
Settings: ABC-DLBCL IkBa-CBG/CBR reporter, luminescence ratio (green luciferase fused to IkBa over red control in TMD8 lymphoma cells), 4 h; activity change, negative = inhibition: at 46.1 µM (top of the series)
Outline: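 Cell line TMD8 (human ABC DLBCL), stably expressing tet-inducible CBG68-IkBa fusion and CBR; IMDM/0.5% FBS; cpd up to 46 uM; dox induction, 4 h, 37C/5% CO2; dual luminescence; green/red ratio; MG132 control.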
Potency is the fitted concentration of half-maximal effect.

| SMILES | activity change, negative = inhibition | Potency |
| --- | --- | --- |
| Cc1ccc(Cl)cc1NC(=O)COC(=O)C1CCCCC1 | inconclusive: 11.7% |  |
| COc1ccc(N2CC(NC(=O)Cc3cccs3)CC2=O)cc1 (centres undefined) |  | inconclusive: 14.1 µM [falling, single point] |
| OCC1(CO)COC(/C=C/c2ccccc2)=N1 | inconclusive: -15.9% |  |
| C/C(=N/OC(=O)c1ccc(C(F)(F)F)cc1)c1oc(C)nc1C |  | inconclusive: 3.98 µM [falling, partial curve, poor fit] |
| Cc1c(Br)c(C(=O)N2CCc3ccccc32)nn1C | inconclusive: 1.24% |  |
| CC(=O)Nc1sc(NC(=O)c2ccc(C)cc2)nc1-c1cccs1 | inconclusive: 9.77% |  |
| COCc1ccc(CN2CCCC(C(=O)Nc3ccccc3-c3ccc(OC)cc3)C2)o1 (centres undefined) | inconclusive: 0.11% |  |
| CC(=O)Nc1ccc(S(=O)(=O)NCC2CCC(C(=O)NCc3ccccc3Cl)CC2)cc1 (centres undefined) | inactive: 3.95% |  |
| Cc1cccc(CCN=C(N)NS(=O)(=O)c2ccccc2)c1 | inactive: -0.0941% |  |
| O=C(CCc1ccccc1)NNC(=O)c1ccc(Br)cc1 | inconclusive: 20.3% |  |
| Cc1ccc(S(=O)(=O)N(C)c2ccc(OCC(=O)Nc3cccc(-n4cnnn4)c3C)cc2)cc1 | inconclusive: 17% |  |
| COc1ccc(NS(=O)(=O)c2ccc3c(c2)Cc2ccccc2-3)cn1 | inconclusive: -4.3% |  |
| Cc1cc(C(=O)CN2c3cccc4cccc(c34)S2(=O)=O)c(C)n1C |  | inconclusive: 23.1 µM [falling, single point] |
| Cc1ccc(C)c(N2CCN(S(=O)(=O)CC34CCC(CC3=O)C4(C)C)CC2)c1 (centres undefined) | inconclusive: 5.7% |  |
| COc1cc2c3nnc(-c4ccccc4)c-3cn(Cc3ccccc3F)c2cc1OC | inconclusive: 0.765% |  |
| O=C(c1ccccc1)c1c[nH]c(C(=O)NCc2cccnc2)c1 | inconclusive: -11.1% |  |
| Oc1ccc(Br)cc1/C=N/n1cnc2ccccc21 | inconclusive: 14.5% |  |
| O=C(CC1C(=O)Nc2ccccc2N1CC(=O)N1CCCC1)Nc1ccc(Br)cc1 (centres undefined) | inconclusive: -16% |  |
| CCc1ccc(OCCOCCN2CCN(C)CC2)cc1 | inactive: 0.0591% |  |
| Cn1c(=O)c2c(nc(N/N=C3\CCCc4ccccc43)n2Cc2ccc(F)cc2)n(C)c1=O | inconclusive: 7.33% |  |
| Cc1cc(C)nc(Nc2ccc(C(=O)O)cc2)n1 |  | inconclusive: 1.84 µM [falling, full curve] |

| SMILES | activity change, negative = inhibition | Potency |
| --- | --- | --- |
| CCCCC(=O)Nc1nnc(CCOC)s1 |  | inconclusive: 35.5 µM [falling, single point] |
| COc1ccc(NS(=O)(=O)c2ccc(NC(=O)C3CC3)cc2)cc1 | inactive: -10.1% |  |
| CCCCCCS(=O)Cc1ccccc1 (centres undefined) | inconclusive: 12.8% |  |
| C(=N\n1cnnc1)/c1nc2ccccc2[nH]1 | inactive: -1.23% |  |
| CN1CCN(C(=O)CCC(=O)c2ccc(F)cc2)CC1 | inconclusive: 4.2% |  |
| O=C(NCCCn1ccnc1)c1ccccc1NS(=O)(=O)c1ccc(F)c(F)c1 | inactive: 14.2% |  |
| c1ccc(C2=Nn3c(nnc3-c3n[nH]c4c3CCC4)SC2)cc1 |  | inconclusive: 7.08 µM [falling, partial curve] |
| Cc1c(C(=O)N/N=C/c2cccnc2)sc(N)c1C#N | inconclusive: -9.26% |  |
| Cc1cccc(N2CCN(C(=O)C34CC5CC(CC(C5)C3)C4)CC2)c1C | inactive: 3.77% |  |
| CCN1/C(=C\C(=S)Nc2ccccc2)Sc2ccccc21 |  | inconclusive: 35.5 µM [rising, single point] |
| O=C(N/N=C/c1ccc(-c2ccc([N+](=O)[O-])cc2)o1)c1cccnc1 | inactive: -1.28% |  |
| CCOC(=O)C1CCCN(C(=O)c2sc3nc(-c4ccc(F)cc4)cn3c2C)C1 (centres undefined) | inconclusive: 1.38% |  |
| CCC(Sc1nc2cc(OC)c(OC)cc2c(=O)n1CCc1ccc(S(N)(=O)=O)cc1)C(=O)NCCOC (centres undefined) | inconclusive: -20.1% |  |
| COc1ccc(-c2cn[nH]c2-c2ccc(OCc3ccc([N+](=O)[O-])cc3)cc2O)cc1 | inactive: 0.889% |  |
| Cc1ccc2ncc(S(=O)(=O)c3ccccc3)c(N3CCCCC3C)c2c1 (centres undefined) | inactive: -1.64% |  |
| Nc1nc(CCl)nc(Nc2ccccc2)n1 | inconclusive: 17.9% |  |
| c1cncc(Nc2nc(-c3cccs3)cs2)c1 |  | inconclusive: 18.4 µM [falling, partial curve, poor fit] |
| COC(=O)/C=C1\C(=O)N(c2nc3ccccc3s2)C(=S)N1c1ccc(F)cc1 |  | inconclusive: 16.4 µM [falling, partial curve, poor fit] |
| CCN(CC)S(=O)(=O)c1cc(NC(=O)COC(=O)CCC(=O)c2ccc(F)cc2)ccc1C | inconclusive: -4.3% |  |
| Cc1ccc(S(=O)(=O)N2CCOCC2)cc1NC(=O)COC(=O)CSc1ccc(Br)cc1C |  | inconclusive: 23.1 µM [activator, partial curve] |
| CC1CCCN(C(=O)CCc2ccccc2)C1 (centres undefined) | inconclusive: 1.22% |  |

Single values from the results shown.
Entry of Cc1cccc(CCN=C(N)NS(=O)(=O)c2ccccc2)c1 under activity change, negative = inhibition: inactive: -0.0941%
Entry of COC(=O)/C=C1\C(=O)N(c2nc3ccccc3s2)C(=S)N1c1ccc(F)cc1 under Potency: inconclusive: 16.4 µM [falling, partial curve, poor fit]

Random excerpt: three entries already listed, in no set order.

| SMILES | activity change, negative = inhibition | Potency |
| --- | --- | --- |
| Oc1ccc(Br)cc1/C=N/n1cnc2ccccc21 | inconclusive: 14.5% |  |
| CN1CCN(C(=O)CCC(=O)c2ccc(F)cc2)CC1 | inconclusive: 4.2% |  |
| Cc1ccc(S(=O)(=O)N(C)c2ccc(OCC(=O)Nc3cccc(-n4cnnn4)c3C)cc2)cc1 | inconclusive: 17% |  |

Further structures

| SMILES | activity change, negative = inhibition | Potency |
| --- | --- | --- |
| O=C(O)C1CC=CCC1C(=O)Nc1ccccc1 (centres undefined) | inconclusive: 14.3% |  |
| O=C(COC(=O)/C=C/c1cccc(C(F)(F)F)c1)NCc1ccco1 | inactive: -0.0276% |  |
| O=C(N/N=C\c1ccc([N+](=O)[O-])o1)c1cncc(Br)c1 | inconclusive: -2.21% |  |
| COc1ccc2cc(CCNC(=O)c3ccc(Br)o3)c(=O)[nH]c2c1 | inconclusive: 0.443% |  |
| O=C(O)CSc1nnc(NC(=O)c2ccc3c(c2)OCO3)s1 |  | inconclusive: 17.8 µM [falling, partial curve] |
| CCOc1cccc(/C=C/c2ccc3cccc(O)c3n2)c1O |  | inconclusive: 17.8 µM [falling, single point] |
| Cc1ccc(OCC(=O)Nc2ccc3c(c2)OC(F)(F)O3)c([N+](=O)[O-])n1 | inconclusive: 10.1% |  |
| C/C(=N\O)C(C)(C)Nc1ccccc1F | inconclusive: 0.0787% |  |
| Cc1cc(C)cc(OCC(O)CN2CCN(C(=O)c3ccco3)CC2)c1 (centres undefined) | inconclusive: 3.82% |  |
| O=C(C1Cc2ccccc2CN1C(=O)c1ccccc1)N1CCN(c2ccccc2)CC1 (centres undefined) |  | inconclusive: 35.5 µM [falling, single point] |
| Cc1ccccc1C(=O)Nc1cccc(NC(=O)c2ncn[nH]2)c1 |  | inconclusive: 35.5 µM [falling, single point] |
| CC(C)(C)NCC(O)Cn1cc(C=O)c2ccccc21 (centres undefined) | inactive: 2.35% |  |
| O=C(CSc1ccc(-c2ccccn2)nn1)c1ccccc1 | inconclusive: -23.7% |  |
| O=C(NC(=S)Nc1ccccc1N1CCCC1)c1ccccc1Br | inconclusive: 5.81% |  |
| Cc1ccc(/C=N/NC(=O)c2cc(-c3ccccc3)nc3ccccc23)o1 |  | inconclusive: 20 µM [falling, single point] |
| O=C1C=C(N2CCOCC2)c2ccccc2C1=O |  | inconclusive: 3.16 µM [falling, single point] |
| O=C(NC1CCCCC1)C1CCCN(S(=O)(=O)c2cccc3cccnc23)C1 (centres undefined) | inactive: 2.69% |  |
| C/C(=N\NC(=S)NC1CCCCC1)c1ccccc1 | inactive: -1.69% |  |
| Cc1ccc(CNc2nc3ccccc3n3nnnc23)cc1 | inconclusive: -5.04% |  |
| NS(=O)(=O)c1cc(C(=O)Nc2ccc3c(c2)OCCCO3)ccc1Cl |  | inconclusive: 12.6 µM [falling, partial curve] |
| CN(C)CCOCCOc1ccc(Cl)cc1C(C)(C)C |  | inconclusive: 22.4 µM [falling, partial curve, poor fit] |

| SMILES | activity change, negative = inhibition | Potency |
| --- | --- | --- |
| O=C(Nc1ccc2c(c1)OCCO2)C1CCCN1S(=O)(=O)c1cccc2cccnc12 (centres undefined) | inconclusive: -11.8% |  |
| Cc1ccccc1-n1c(=O)cc(N2CCc3ccccc3C2)[nH]c1=O | inconclusive: 0.265% |  |
| CCC1=NN(C(=O)c2cccc(Br)c2)C(O)(c2ccc(Br)cc2)C1 (centres undefined) | inconclusive: -19% |  |
| O=C(NCc1ccccn1)c1cc(-c2ccccc2)nc2ccccc12 | inactive: -3.26% |  |
| C=CC[n+]1c(-c2ccc(C)cc2)csc1Nc1ccc(NC(C)=O)cc1 | inactive: -3.93% |  |
| CC(/C=C/c1ccco1)=N\NC(=O)c1cc(Cl)ccc1O | inconclusive: 198% |  |
| O=C(Nc1ccc(Cl)cc1Cl)c1cc2ccccc2o1 | inconclusive: 6.52% |  |
| CN(CC1CCOCC1)C(=O)c1ccc2nc(Cc3cccc(Cl)c3)oc2c1 | inactive: -4.82% |  |
| Cc1cccc(-c2nnc(NC(=O)c3ccc(Cl)cc3)o2)c1 | inactive: 0.398% |  |
| COc1cccc(NC(=O)Nc2ccccc2Br)c1 |  | inconclusive: 12.6 µM [falling, partial curve, poor fit] |
| O=C1CCCN2N=C(SCC(=O)Nc3ccc(F)cc3F)SC2=N1 | inactive: 6.73% |  |
| Cc1cc(OCC(=O)NCc2nc(-c3ccccc3)no2)c(C)cc1Br | inconclusive: 0.735% |  |
| Cc1n[nH]c(=S)n1/N=C/c1ccccc1OCc1ccc(Cl)cc1 | inconclusive: -12% |  |
| CCOc1ccccc1NC(=O)NCCCCc1ccccc1 | inactive: -10.6% |  |
| CC1=NCCN1CCNC(=O)Nc1ccc(F)cc1 | inconclusive: -12.9% |  |
| O=C(CN1CCN(Cc2ccccc2)CC1)Nc1cccc(S(=O)(=O)N2CCCCCC2)c1 | inconclusive: -19.4% |  |
| CCC(=O)NC(Nc1nc2ccc(C)cc2s1)(C(=O)OC)C(F)(F)F (centres undefined) | inconclusive: 28.5% |  |
| Cc1ccc(Cn2c(O)c(N=NC(=S)Nc3ccccc3F)c3ccccc32)cc1 | inactive: 1.43% |  |
| C#Cc1ccc([C@H]2C=C(C(=O)N3CCN(Cc4ccc5c(c4)OCO5)CC3)O[C@@H](OCc3ccc(CO)cc3)C2)cc1 |  | inconclusive: 1.41 µM [falling, partial curve] |
| COc1cc(NC(=O)Cn2c(=O)n(-c3cccc(C)c3)c(=O)c3c(C)c(C)sc32)cc(OC)c1 | inactive: 4.48% |  |
| COC(=O)C1CCN(C(=O)COC(=O)c2cc([N+](=O)[O-])ccc2N2CCOCC2)CC1 | inconclusive: -7.42% |  |
